In the supplement of paper PMC10849652:
Some of the results follow.

Chains of the proteins cited; added tags and fusions are not shown. Lines headed by an entry give the natural chain unless they say otherwise; changes in a name come on top.
UniProt P18887, whole entry, looked up: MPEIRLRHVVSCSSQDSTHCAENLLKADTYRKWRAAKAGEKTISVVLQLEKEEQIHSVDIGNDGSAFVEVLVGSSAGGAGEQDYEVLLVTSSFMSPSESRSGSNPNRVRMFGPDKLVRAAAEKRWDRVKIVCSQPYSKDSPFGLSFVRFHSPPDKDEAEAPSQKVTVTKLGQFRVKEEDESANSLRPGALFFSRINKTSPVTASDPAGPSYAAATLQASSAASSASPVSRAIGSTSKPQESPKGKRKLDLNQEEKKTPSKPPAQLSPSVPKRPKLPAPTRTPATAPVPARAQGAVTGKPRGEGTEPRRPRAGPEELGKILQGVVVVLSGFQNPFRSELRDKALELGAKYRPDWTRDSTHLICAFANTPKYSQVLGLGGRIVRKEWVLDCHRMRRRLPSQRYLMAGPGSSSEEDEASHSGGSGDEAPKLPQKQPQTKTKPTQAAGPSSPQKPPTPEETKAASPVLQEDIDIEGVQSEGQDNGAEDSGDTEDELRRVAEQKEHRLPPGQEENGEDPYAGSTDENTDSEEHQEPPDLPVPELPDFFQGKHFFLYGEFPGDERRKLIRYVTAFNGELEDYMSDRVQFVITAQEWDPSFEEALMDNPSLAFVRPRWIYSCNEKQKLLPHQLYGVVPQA
UniProt Q8IX07: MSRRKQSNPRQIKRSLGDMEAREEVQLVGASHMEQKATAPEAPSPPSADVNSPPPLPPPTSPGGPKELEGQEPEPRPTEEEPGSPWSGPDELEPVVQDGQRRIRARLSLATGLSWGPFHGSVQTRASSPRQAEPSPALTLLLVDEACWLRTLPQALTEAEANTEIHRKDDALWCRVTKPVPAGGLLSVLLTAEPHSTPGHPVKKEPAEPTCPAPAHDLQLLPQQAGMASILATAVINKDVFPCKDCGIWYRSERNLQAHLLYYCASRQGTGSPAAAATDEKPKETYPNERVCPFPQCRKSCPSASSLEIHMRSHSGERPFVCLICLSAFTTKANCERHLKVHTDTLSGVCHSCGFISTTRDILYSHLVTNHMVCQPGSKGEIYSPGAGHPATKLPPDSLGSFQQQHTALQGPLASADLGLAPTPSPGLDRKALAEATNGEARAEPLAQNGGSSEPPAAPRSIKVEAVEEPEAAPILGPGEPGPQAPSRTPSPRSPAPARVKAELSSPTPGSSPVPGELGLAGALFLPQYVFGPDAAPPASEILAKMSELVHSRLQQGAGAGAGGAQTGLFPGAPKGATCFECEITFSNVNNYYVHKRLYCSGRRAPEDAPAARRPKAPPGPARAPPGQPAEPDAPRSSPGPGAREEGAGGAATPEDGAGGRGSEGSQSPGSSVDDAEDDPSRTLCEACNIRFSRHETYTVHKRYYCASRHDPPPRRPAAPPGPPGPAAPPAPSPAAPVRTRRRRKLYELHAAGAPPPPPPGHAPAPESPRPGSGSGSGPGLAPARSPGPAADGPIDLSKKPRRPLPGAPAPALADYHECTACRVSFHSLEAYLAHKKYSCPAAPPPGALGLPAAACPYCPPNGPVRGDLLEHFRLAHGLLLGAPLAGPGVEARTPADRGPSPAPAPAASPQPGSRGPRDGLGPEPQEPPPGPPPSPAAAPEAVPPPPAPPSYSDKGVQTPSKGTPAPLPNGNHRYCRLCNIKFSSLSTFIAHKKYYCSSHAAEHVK
UniProt P37275: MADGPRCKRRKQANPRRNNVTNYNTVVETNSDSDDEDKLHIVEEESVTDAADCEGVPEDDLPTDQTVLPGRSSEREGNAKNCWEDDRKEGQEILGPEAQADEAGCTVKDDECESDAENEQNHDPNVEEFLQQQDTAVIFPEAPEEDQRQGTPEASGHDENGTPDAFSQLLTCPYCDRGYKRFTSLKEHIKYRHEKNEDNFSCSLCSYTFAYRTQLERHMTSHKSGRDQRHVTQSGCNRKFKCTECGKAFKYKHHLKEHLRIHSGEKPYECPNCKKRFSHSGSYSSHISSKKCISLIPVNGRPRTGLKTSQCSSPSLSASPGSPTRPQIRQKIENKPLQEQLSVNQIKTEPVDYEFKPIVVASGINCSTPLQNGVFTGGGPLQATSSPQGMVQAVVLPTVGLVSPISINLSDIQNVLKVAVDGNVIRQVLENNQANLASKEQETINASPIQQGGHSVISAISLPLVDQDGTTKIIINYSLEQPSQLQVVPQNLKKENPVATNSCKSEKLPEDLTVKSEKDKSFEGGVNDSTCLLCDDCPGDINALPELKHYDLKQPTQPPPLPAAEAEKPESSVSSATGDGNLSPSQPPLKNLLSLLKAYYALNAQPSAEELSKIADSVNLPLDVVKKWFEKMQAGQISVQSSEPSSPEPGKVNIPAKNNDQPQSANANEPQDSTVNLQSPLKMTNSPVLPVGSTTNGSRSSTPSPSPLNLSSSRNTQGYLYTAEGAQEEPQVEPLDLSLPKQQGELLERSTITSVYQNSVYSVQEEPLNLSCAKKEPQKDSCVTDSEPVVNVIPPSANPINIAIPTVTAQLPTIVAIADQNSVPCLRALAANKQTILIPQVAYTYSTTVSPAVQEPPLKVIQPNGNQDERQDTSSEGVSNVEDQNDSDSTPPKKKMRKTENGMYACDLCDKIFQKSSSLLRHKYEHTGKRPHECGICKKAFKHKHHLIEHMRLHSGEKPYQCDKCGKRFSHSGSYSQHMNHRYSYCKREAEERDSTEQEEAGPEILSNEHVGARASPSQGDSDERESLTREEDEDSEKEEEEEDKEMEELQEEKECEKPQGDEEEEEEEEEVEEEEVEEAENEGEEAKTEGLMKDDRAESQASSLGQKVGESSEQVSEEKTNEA
UniProt Q16600: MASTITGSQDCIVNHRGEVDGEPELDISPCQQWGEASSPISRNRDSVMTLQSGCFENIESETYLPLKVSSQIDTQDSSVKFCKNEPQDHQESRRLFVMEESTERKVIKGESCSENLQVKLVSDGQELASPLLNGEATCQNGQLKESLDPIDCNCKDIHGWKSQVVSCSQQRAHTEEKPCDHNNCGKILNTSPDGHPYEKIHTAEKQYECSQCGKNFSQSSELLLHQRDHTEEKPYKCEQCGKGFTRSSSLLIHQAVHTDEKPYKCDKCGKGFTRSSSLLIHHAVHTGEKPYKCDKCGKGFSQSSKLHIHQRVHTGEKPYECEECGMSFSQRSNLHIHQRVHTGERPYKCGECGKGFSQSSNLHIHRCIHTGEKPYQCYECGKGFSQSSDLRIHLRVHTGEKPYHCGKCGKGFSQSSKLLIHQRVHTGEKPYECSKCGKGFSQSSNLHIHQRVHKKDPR
UniProt Q96DA0: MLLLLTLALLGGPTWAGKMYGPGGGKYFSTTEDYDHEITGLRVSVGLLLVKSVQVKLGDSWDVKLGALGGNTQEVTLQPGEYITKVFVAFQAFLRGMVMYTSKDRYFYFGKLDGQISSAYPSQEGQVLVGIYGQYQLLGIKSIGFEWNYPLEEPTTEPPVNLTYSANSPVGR
UniProt Q9ULJ6: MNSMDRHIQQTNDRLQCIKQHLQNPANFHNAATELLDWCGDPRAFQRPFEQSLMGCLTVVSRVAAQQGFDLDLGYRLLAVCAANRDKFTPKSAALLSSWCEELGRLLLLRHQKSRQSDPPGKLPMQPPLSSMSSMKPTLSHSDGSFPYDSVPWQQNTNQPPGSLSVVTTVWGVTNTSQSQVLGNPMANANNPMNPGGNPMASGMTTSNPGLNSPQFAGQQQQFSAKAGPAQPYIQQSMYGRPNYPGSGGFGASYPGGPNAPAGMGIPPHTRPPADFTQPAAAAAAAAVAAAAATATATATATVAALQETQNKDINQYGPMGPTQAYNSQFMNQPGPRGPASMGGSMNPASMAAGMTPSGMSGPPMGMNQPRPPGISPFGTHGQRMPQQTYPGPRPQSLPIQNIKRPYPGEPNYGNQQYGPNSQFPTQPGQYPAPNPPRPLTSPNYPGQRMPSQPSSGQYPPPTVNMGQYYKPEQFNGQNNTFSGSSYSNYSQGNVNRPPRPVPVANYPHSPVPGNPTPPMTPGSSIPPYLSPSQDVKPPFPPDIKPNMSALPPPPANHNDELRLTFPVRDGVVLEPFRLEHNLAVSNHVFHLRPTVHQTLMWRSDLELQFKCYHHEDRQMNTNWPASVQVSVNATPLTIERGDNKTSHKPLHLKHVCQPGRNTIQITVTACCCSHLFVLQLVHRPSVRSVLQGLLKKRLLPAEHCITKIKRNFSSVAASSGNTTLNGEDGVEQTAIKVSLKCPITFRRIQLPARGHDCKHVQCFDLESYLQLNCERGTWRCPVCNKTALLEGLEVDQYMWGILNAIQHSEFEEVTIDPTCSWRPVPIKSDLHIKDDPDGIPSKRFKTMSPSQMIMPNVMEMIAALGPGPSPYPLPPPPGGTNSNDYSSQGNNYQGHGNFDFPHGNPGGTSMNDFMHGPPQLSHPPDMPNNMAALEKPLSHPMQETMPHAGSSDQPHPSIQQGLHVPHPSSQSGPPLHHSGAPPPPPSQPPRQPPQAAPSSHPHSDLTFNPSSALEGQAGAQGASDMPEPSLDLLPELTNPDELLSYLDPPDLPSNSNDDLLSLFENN
UniProt P12956: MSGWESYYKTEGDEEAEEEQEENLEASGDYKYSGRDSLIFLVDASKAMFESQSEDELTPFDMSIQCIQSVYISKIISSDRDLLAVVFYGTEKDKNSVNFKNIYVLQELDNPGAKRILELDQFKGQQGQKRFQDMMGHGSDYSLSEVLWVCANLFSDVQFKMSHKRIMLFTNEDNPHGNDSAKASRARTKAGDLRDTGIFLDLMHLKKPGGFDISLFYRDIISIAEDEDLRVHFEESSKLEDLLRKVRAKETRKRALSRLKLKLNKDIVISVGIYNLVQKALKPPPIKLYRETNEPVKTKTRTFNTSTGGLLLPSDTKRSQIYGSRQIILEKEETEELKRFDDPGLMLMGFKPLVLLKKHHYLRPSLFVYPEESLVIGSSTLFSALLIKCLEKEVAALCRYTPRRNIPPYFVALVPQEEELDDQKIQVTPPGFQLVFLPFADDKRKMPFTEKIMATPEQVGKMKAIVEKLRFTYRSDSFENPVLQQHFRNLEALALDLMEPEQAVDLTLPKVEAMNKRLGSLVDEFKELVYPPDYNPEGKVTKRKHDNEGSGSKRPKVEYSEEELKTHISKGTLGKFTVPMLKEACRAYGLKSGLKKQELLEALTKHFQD
UniProt Q8TCF1: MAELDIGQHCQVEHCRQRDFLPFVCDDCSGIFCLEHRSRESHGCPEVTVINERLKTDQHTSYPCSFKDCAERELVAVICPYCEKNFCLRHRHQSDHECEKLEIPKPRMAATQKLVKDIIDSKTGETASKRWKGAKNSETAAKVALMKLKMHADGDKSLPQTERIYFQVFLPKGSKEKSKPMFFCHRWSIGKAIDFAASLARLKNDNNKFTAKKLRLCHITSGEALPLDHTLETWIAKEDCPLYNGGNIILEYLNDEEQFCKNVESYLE
UniProt Q9NPG8: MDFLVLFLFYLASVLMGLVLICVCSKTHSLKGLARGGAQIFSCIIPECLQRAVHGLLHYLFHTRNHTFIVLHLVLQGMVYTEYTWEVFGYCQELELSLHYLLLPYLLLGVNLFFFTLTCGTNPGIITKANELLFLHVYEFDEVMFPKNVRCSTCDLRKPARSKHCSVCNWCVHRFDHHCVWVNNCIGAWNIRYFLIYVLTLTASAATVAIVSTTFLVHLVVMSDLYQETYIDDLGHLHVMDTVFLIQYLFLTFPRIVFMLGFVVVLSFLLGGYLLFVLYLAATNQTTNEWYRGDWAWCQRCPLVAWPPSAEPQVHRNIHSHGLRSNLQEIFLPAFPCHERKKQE
UniProt Q15776: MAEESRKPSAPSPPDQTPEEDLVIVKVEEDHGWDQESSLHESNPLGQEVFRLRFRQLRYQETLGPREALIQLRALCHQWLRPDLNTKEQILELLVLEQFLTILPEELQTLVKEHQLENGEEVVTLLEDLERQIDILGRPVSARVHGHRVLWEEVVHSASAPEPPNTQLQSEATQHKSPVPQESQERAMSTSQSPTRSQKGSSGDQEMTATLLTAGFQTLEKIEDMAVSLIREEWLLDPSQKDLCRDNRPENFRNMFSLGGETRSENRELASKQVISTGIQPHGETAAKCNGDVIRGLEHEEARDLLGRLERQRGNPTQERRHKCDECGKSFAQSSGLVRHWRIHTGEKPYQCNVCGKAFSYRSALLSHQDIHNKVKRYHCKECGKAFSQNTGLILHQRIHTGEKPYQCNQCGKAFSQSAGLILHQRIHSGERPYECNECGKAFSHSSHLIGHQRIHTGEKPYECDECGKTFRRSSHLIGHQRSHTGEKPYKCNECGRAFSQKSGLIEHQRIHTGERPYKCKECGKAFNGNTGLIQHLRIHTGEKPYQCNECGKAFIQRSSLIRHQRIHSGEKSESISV
UniProt Q9H8U3: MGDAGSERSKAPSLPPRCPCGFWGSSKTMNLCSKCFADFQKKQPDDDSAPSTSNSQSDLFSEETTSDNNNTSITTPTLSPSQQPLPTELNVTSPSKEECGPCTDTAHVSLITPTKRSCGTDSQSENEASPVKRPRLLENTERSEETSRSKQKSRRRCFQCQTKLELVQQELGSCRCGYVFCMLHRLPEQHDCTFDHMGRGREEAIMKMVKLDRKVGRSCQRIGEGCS

Assays:
Assay in all cases: log2 fold change, soluble protein after heating vs DMSO (PISA); higher = thermal stabilisation; K562 cells, 10 uM, 30 min; active = over 0.2 and 3.5 SD of the protein, either way, in both replicates (recomputed)
[1] = compound: CC1=C(C=C(C=C1)NC(=O)C2=CC(=CC=C2)C(C)(C)C#N)NC3=CC4=C(C=C3)N=CN(C4=O)C
Summary of the method: (§1)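 Thermal stability values are relative to control samples and come from duplicates. They are expressed as log2 fold changes. For measurement, K562 cells (2×10^6 cells/mL) received 10 μM compound for 30 min, and aliquots were heated for 3 min over 48°C-58°C, pooled, and extracted at 4°C in PBS with 0.5% NP-40. Soluble protein, the supernatant after 21,000xg for 90 min, was quantified by TMTpro 16plex LC-MS/MS with equalised channel sums.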

[2] = compound: CC1=C(C=C(C=C1)NC(=O)C2=CC(=CC=C2)N(C)C)NC(=O)C3=CC=C(C=C3)O
Summary of the method: as §1

[3] = compound: CC1=CC=C(C=C1)SC2=C3C=C(SC3=CN=C2)C(=O)N
Summary of the method: as §1

[4] = compound: CC1=NC(=CC=C1)C2=C(N=C(N2)C(C)(C)C)C3=CC4=NC=CN=C4C=C3
Summary of the method: as §1

[5] = compound: CCCCN(Cc1ccc(C(=O)NO)cc1)C(=O)Nc1ccccc1 [Nexturastat A]
Summary of the method: as §1

[6] = compound: CCCS(=O)(=O)Nc1ccc(F)c(C(=O)c2c[nH]c3ncc(-c4ccc(Cl)cc4)cc23)c1F [vemurafenib]
Summary of the method: as §1

[7] = compound: CCCS(=O)(=O)Nc1ccc(F)c(C(=O)c2c[nH]c3ncc(Cl)cc23)c1F
Summary of the method: as §1

[8] = compound: CCCc1cc(C)[nH]c(=O)c1CNC(=O)c1cc(-c2ccnc(N3CCN(C)CC3)c2)cc2c1cnn2C(C)C
Summary of the method: as §1

[9] = compound: CCN(CC)Cc1ccc2cc(COC(=O)Nc3ccc(C(=O)NO)cc3)ccc2c1 [givinostat]
Summary of the method: as §1

[10] = compound: CCN(CCCOc1ccc2c(Nc3cc(CC(=O)Nc4cccc(F)c4)[nH]n3)ncnc2c1)CCOP(=O)(O)O [barasertib]
Summary of the method: as §1

Target | log2 fold change [1] | log2 fold change [2] | log2 fold change [3] | log2 fold change [4] | log2 fold change [5] | log2 fold change [6] | log2 fold change [7] | log2 fold change [8] | log2 fold change [9] | log2 fold change [10]
ZEB2 (UniProt O60315) | inactive: -0.027 | inactive: 0.071 | inactive: -0.012 | inactive: 0.031 | inactive: 0.047 | inactive: 0.256 | inactive: 0.123 | inactive: -0.067 | inactive: 0.193 | inactive: 0.117
ZCRB1 (UniProt Q8TBF4) | inactive: -0.221 | – | inactive: -0.147 | – | – | – | inactive: -0.074 | – | inactive: -0.049 | –
XRCC1 (UniProt P18887) | inactive: 0.049 | inactive: 0.063 | – | inactive: -0.222 | inactive: 0.429 | – | – | – | inactive: 0.01 | –
ZFPM1 (UniProt Q8IX07) | inactive: 0.079 | inactive: 0.032 | inactive: -0.046 | – | inactive: -0.129 | inactive: 0.105 | inactive: -0.02 | – | inactive: 0.123 | inactive: -0.248
ZBTB43 (UniProt O43298) | inactive: 0.004 | inactive: 0.141 | – | inactive: -0.04 | inactive: -0.203 | inactive: 0.044 | – | – | inactive: -0.006 | inactive: -0.105
ZBTB7A (UniProt O95365) | inactive: -0.046 | inactive: 0.018 | inactive: -0.016 | inactive: 0.092 | inactive: 0.023 | – | inactive: -0.033 | – | inactive: 0.007 | inactive: -0.024
ZNF148 (UniProt Q9UQR1) | inactive: 0.022 | inactive: -0.276 | inactive: -0.092 | inactive: -0.078 | inactive: -0.082 | – | inactive: 0.047 | inactive: -0.005 | inactive: -0.02 | inactive: -0.191
ZEB1 isoform 2 (UniProt P37275) | inactive: 0.011 | – | inactive: -0.062 | inactive: 0.057 | – | inactive: -0.12 | inactive: 0.057 | inactive: -0.002 | inactive: 0.049 | inactive: 0.012
ZDHHC13 (UniProt Q8IUH4) | inactive: 0.04 | inactive: -0.058 | – | – | inactive: 0.072 | – | – | – | inactive: 0.018 | –
ZNF106 (UniProt Q9H2Y7) | inactive: -0.024 | – | inactive: -0.113 | – | – | inactive: 0.018 | inactive: 0.013 | – | – | inactive: 0.022
ZNF239 (UniProt Q16600) | inactive: -0.002 | inactive: 0.143 | inactive: 0.019 | inactive: 0.013 | inactive: 0.441 | inactive: 0.004 | inactive: -0.02 | active: -0.662 | inactive: -0.226 | inactive: -0.034
ZNF207 isoform 2 (UniProt O43670) | inactive: -0.029 | inactive: -0.129 | inactive: 0.033 | – | inactive: -0.15 | inactive: 0.158 | inactive: 0.028 | inactive: -0.398 | inactive: 0.083 | inactive: -0.114
ZBTB24 (UniProt O43167) | inactive: 0.146 | inactive: 0.096 | inactive: -0.182 | – | inactive: 0.116 | – | inactive: 0.041 | – | inactive: -0.001 | –
ZG16B (UniProt Q96DA0) | inactive: 0.057 | – | inactive: 0.054 | – | – | inactive: 0.201 | inactive: -0.038 | inactive: -0.1 | – | inactive: 0.706
ZMYM4 (UniProt Q5VZL5) | inactive: 0.107 | inactive: -0.027 | – | inactive: -0.238 | inactive: -0.211 | inactive: -0.028 | – | inactive: 0.034 | inactive: -0.042 | inactive: 0.094
ZMIZ1 (UniProt Q9ULJ6) | inactive: -0.066 | inactive: -0.062 | inactive: -0.008 | inactive: -0.011 | inactive: -0.011 | inactive: 0.003 | inactive: 0.018 | inactive: -0.014 | inactive: 0.002 | inactive: 0.016

Target | log2 fold change [1] | log2 fold change [2] | log2 fold change [3] | log2 fold change [4] | log2 fold change [5] | log2 fold change [6] | log2 fold change [7] | log2 fold change [8] | log2 fold change [9] | log2 fold change [10]
YWHAQ (UniProt P27348) | inactive: 0.184 | inactive: -0.023 | inactive: 0.079 | inactive: 0.05 | inactive: -0.063 | inactive: 0.284 | inactive: 0.233 | inactive: 0.241 | inactive: -0.039 | inactive: 0.006
ZFHX4 isoform 5 (UniProt Q86UP3) | inactive: -0.051 | – | – | inactive: 0.066 | – | – | – | – | inactive: -0.076 | –
XRCC6 (UniProt P12956) | inactive: 0.046 | inactive: -0.051 | inactive: 0.022 | inactive: 0.033 | inactive: -0.023 | inactive: 0.059 | inactive: 0.138 | inactive: 0.025 | inactive: 0.116 | inactive: 0.086
ZFAND1 (UniProt Q8TCF1) | inactive: 0.051 | inactive: 0 | inactive: 0.275 | inactive: -0.018 | – | inactive: 0.275 | inactive: 0.236 | inactive: 0.157 | inactive: -0.108 | inactive: 0.02
ZFC3H1 (UniProt O60293) | inactive: 0.016 | inactive: 0.019 | – | – | – | – | – | inactive: -0.266 | – | inactive: 0.034
ZFR (UniProt Q96KR1) | inactive: 0.07 | inactive: -0.058 | – | inactive: 0.091 | inactive: 0.195 | inactive: -0.071 | – | inactive: 0.009 | inactive: 0.058 | inactive: -0.118
ZDHHC4 (UniProt Q9NPG8) | inactive: 0.065 | – | inactive: -0.052 | inactive: 0.01 | inactive: -0.001 | inactive: 0.014 | inactive: -0.006 | inactive: 0.137 | inactive: -0.025 | inactive: 0.277
ZC3H18 (UniProt Q86VM9) | inactive: 0 | inactive: -0.02 | inactive: -0.064 | inactive: -0.029 | inactive: 0.11 | inactive: -0.025 | inactive: -0.019 | inactive: -0.011 | inactive: 0.106 | inactive: -0.05
YBX3 isoform 2 (UniProt P16989) | inactive: 0.046 | inactive: 0.105 | inactive: -0.347 | inactive: -0.183 | inactive: 0.248 | inactive: -0.119 | inactive: -0.336 | inactive: 0.058 | inactive: -0.009 | inactive: -0.03
ZKSCAN8 (UniProt Q15776) | inactive: 0.056 | inactive: 0.001 | inactive: -0.227 | – | inactive: 0.248 | inactive: -0.258 | inactive: -0.166 | – | – | –
XK (UniProt P51811) | inactive: -0.114 | – | inactive: -0.056 | inactive: -0.018 | – | inactive: -0.207 | inactive: -0.116 | inactive: -0.1 | inactive: 0.011 | inactive: -0.046
ZNF131 (UniProt P52739) | inactive: 0.173 | inactive: -0.16 | – | inactive: -0.057 | inactive: -0.045 | – | – | – | – | inactive: 0.061
ZBTB10 (UniProt Q96DT7) | inactive: -0.333 | – | inactive: 0.022 | – | inactive: 0.015 | – | inactive: 0.029 | inactive: -0.052 | inactive: -0.016 | inactive: 0.141
ZFAND3 (UniProt Q9H8U3) | inactive: -0.106 | inactive: 0.067 | inactive: -0.067 | – | inactive: 0.113 | inactive: -0.014 | inactive: -0.004 | inactive: -0.053 | inactive: 0.001 | inactive: 0.002
XIRP2 isoform 8 (UniProt A4UGR9) | inactive: -0.068 | – | inactive: -0.117 | – | – | – | inactive: -0.067 | inactive: -0.024 | inactive: -0.109 | inactive: 0.024

Whole records as entered above. Order of values: log2 fold change [1]	log2 fold change [2]	log2 fold change [3]	log2 fold change [4]	log2 fold change [5]	log2 fold change [6]	log2 fold change [7]	log2 fold change [8]	log2 fold change [9]	log2 fold change [10]
XIRP2 isoform 8 (UniProt A4UGR9) is entered as inactive: -0.068	–	inactive: -0.117	–	–	–	inactive: -0.067	inactive: -0.024	inactive: -0.109	inactive: 0.024
ZFAND3 (UniProt Q9H8U3) is entered as inactive: -0.106	inactive: 0.067	inactive: -0.067	–	inactive: 0.113	inactive: -0.014	inactive: -0.004	inactive: -0.053	inactive: 0.001	inactive: 0.002
